Results published in US12544335B2, “Treatment approach by targeted delivery of bioactive molecules” (priority 2018, dated 2026).
At least one structure is not confirmed: it was looked up by name or label, or the drawing left a doubt.

Columns and labels:
[1] = Fenestrated PEEK implant filled with CaS/HA in the tibial bone of rats (micro-CT, pull-out testing, histology); format: in vivo; conditions: for amount of bone formation around implant (micro-CT): vs only implant G1, 6 weeks; for amount of bone formation around implant (micro-CT) / peak force to pull-out the implant: p<0.01
[2] = In-vitro release of rifampicin from CaS/HA pellets in PBS; format: physicochemical
[3] = tested on: S. aureus P3; experiment: In-vivo biomodulation, disk diffusion on third day with clinical strain; format: cell-based; conditions: clinically obtained bacterial strain
[4] = tested on: S. aureus ATCC 25923; experiment: In-vivo biomodulation of HA pellets by systemic TET, disk diffusion assay; format: cell-based
Method: METHODS: (1) In-vitro binding experiment: Nano-HA powder of <200 nm particle size, with a majority of the particles being in size of about 50 nm (100 mg; Fluidnova) was measured in 2 mL microcentrifuge tubes in triplicates and 1 mL of TET solution (4 μg/mL) was added. After vortex mixing, tubes were kept on a rotator at 180 RPM for 1, 6, and 12 h. At desired time points, the tubes were removed and centrifuged at 14000 RPM for 2 min. The supernatant was discarded and sediments were then “washed” 4 times by adding 1 mL of saline (NaCl 0.9%) followed by vortex mixing and centrifuging at 14000 RPM for 2 min. After 4 washing-cycles, supernatants were discarded and 60 μL of hyaluronic acid (HAD, 1 mg/mL) was added to the sediments and mixed. Pastes were then transferred to an elastic mold (Ø=4.7 mm) and placed at −20° C. for an hour to freeze nano-HA paste into pellet. Frozen pellets were removed from the molds and brought to room temperature. […] After overnight incubation at 37° C., the diameter of the zone of inhibition (ZOI) around the pellets were measured.
(2) In-vivo biomodulation: Pellets of nano-/micro-HA were prepared by mixing 100 mg of nano-/micro-HA (Fluidnova, wherein the micro-HA particles are about 10 μm, and wherein the nano-HA particles are less than 200 nm and a majority of the nano-HA particles about 50 nm) with 60 and 80 μL of HAD, (1 mg/mL) respectively. […]

[5] = tested on: Staphylococcus aureus ATCC 25923; experiment: In-vitro TET binding to nano-HA, Kirby-Bauer disk diffusion assay; format: cell-based; conditions: TET 4 μg/mL, 100 mg nano-HA, 1, 6 and 12 h

## O=P(O)(O)C(O)(Cn1ccnc1)P(=O)(O)O [ZA, Zoledronic Acid]
[1]; G2: CaS/HA implant + systemic ZA 0.1 mg/kg 2 weeks post implantation
  amount of bone formation around implant (micro-CT): significantly higher
[1]; G2 systemic ZA vs G1
  bone formation by histology: More bone formation
[1]; G2 systemic ZA vs only implant G1
  peak force to pull-out the implant: Statistically significant peak force
[1]; G3: CaS/HA implant + local ZA 10 μg
  amount of bone formation around implant (micro-CT): significantly higher
[1]; G3 local ZA vs G1
  bone formation by histology: More bone formation
[1]; G3 local ZA vs only implant G1
  peak force to pull-out the implant: Statistically significant peak force
[1]; G3 local ZA vs only implant G1, p<0.05
  absorbed energy in pull-out testing: significantly higher
[1]; ROI 1, immediately around implant holes
  bone formation, local ZA (G3) vs systemic ZA (G2): No differences
[1]; ROI 2, entire depth of the chamber
  bone formation, local ZA (G3) vs systemic ZA (G2): higher in G3 compared to G2
[1]; ZA groups vs only implant
  stiffness in pull-out testing: No differences

## CO[C@H]1/C=C/O[C@@]2(C)Oc3c(C)c(O)c4c(O)c(c(/C=N/N5CCN(C)CC5)c(O)c4c3C2=O)NC(=O)/C(C)=C\C=C\[C@H](C)[C@H](O)[C@@H](C)[C@@H](O)[C@@H](C)[C@H](OC(C)=O)[C@@H]1C [rifampicin]
[2]
  period over which HA retains and releases the agent: 3 months
[2]; PBS
  period of sustained release from CaS/HA: 12 week
[2]; after 12-week release in PBS
  drug still bound to the CaS/HA biomaterial: 60%

## CN(C)[C@@H]1C(O)=C(C(N)=O)C(=O)[C@@]2(O)C(O)=C3C(=O)c4c(O)cccc4[C@@](C)(O)[C@H]3C[C@@H]12 [tetracycline]
[3]
  antibacterial properties of biomodulated HA particles: effective antibacterial properties
[4]; 2 of 6 samples on D-1, disappeared by D-2
  ZOI of muscle samples: narrow ZOI
[4]; after systemic TET
  antibacterial effect of trabecular and cortical bone samples: antibacterial effect
[5]
  ZOI of nano-HA pellets after mixing with TET: almost similar ZOI
